Taken from: PubChem BioAssay AID1259254 (NCATS, 2017)
Aim: 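Gene knock-downs that lead to re-replication, shown by excess G2 DNA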 (primary screen). System: human HCT116 colorectal cancer cells. Knock-down reagent: single siRNA against human genes. Time to read-out: 3 days. Measured: 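Imaged Hoechst DNA stain sorts each cell into a cycle phase by DNA amount; per plate, G2 fraction set to 0% for non-targeting and 100% for GMNN siRNA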. Direction: G2 robust z-score and G2 cells, % of GMNN control: higher = more G2 cells, more excess DNA replication. Active means: 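An siRNA counts as active if its G2 robust z-score lies at least 5 MADs above the screen median; here such calls match roughly 38% of GMNN control or more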.
In all, the deposit lists about 59,000 reagents; this is an unselected part. About 1,550 of them (2.6%) count as active. 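G2 share is only a proxy for re-replication; each gene was hit by three separate siRNAs, and active genes were retested.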 The numbers tell different reagents against one gene apart. Not all columns of the deposit are shown. Not given: the amount of reagent.

CPB2 (GeneID 1361) #1 — G2 robust z-score = 0.123; G2 cells, % of GMNN control = 3.83; outcome = inactive
CPB2 (GeneID 1361) #2 — G2 robust z-score = -0.765; G2 cells, % of GMNN control = -2.42; outcome = inactive
CPB2 (GeneID 1361) #3 — G2 robust z-score = -0.931; G2 cells, % of GMNN control = -3.59; outcome = inactive
LCA5 (GeneID 167691) #1 — G2 robust z-score = 1.06; G2 cells, % of GMNN control = 10.4; outcome = inactive
LCA5 (GeneID 167691) #2 — G2 robust z-score = -0.269; G2 cells, % of GMNN control = 1.07; outcome = inactive
LCA5 (GeneID 167691) #3 — G2 robust z-score = -0.221; G2 cells, % of GMNN control = 1.41; outcome = inactive
RNF138 (GeneID 51444) #1 — G2 robust z-score = -0.283; G2 cells, % of GMNN control = 0.974; outcome = inactive
RNF138 (GeneID 51444) #2 — G2 robust z-score = 0.206; G2 cells, % of GMNN control = 4.42; outcome = inactive
RNF138 (GeneID 51444) #3 — G2 robust z-score = -0.044; G2 cells, % of GMNN control = 2.66; outcome = inactive
ISL2 (GeneID 64843) #1 — G2 robust z-score = 0.705; G2 cells, % of GMNN control = 7.93; outcome = inactive
ISL2 (GeneID 64843) #2 — G2 robust z-score = 0.203; G2 cells, % of GMNN control = 4.4; outcome = inactive
ISL2 (GeneID 64843) #3 — G2 robust z-score = 1.08; G2 cells, % of GMNN control = 10.6; outcome = inactive
CHCHD3 (GeneID 54927) #1 — G2 robust z-score = -0.3; G2 cells, % of GMNN control = 0.856; outcome = inactive
CHCHD3 (GeneID 54927) #2 — G2 robust z-score = -0.871; G2 cells, % of GMNN control = -3.16; outcome = inactive
CHCHD3 (GeneID 54927) #3 — G2 robust z-score = 0.411; G2 cells, % of GMNN control = 5.86; outcome = inactive
ANP32B (GeneID 10541) #1 — G2 robust z-score = 0.391; G2 cells, % of GMNN control = 5.72; outcome = inactive
ANP32B (GeneID 10541) #2 — G2 robust z-score = -1.06; G2 cells, % of GMNN control = -4.51; outcome = inactive
ANP32B (GeneID 10541) #3 — G2 robust z-score = -0.722; G2 cells, % of GMNN control = -2.11; outcome = inactive

Limited to “G2 cells, % of GMNN control”, for 2 of the entries above:
LCA5 (GeneID 167691) #2 = 1.07
LCA5 (GeneID 167691) #3 = 1.41
